These are yes or no findings as the source states them, for the method shown.
Target: T1, Brassinosteroid-insensitive 1 suppressor 1 (BRS1), yeast two-hybrid construct (Arabidopsis) (UniProt Q9M099)
T1 sequence: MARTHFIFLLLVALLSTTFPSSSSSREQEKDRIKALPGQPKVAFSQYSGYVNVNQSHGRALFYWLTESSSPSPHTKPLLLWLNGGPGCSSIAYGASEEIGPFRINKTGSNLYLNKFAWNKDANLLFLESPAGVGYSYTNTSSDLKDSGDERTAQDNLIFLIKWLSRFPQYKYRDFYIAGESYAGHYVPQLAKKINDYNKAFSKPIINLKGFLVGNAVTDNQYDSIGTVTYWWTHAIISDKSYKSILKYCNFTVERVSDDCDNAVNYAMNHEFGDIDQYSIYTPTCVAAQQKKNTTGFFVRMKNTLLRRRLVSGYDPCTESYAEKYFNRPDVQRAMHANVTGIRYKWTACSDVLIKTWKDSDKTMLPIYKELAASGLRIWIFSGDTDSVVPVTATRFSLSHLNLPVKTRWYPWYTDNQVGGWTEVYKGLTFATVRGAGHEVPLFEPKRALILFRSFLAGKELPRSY
Assay: two-hybrid; yeast two-hybrid; no methods given

Protein sequences, listed by entry. Tags and fused reporters are not part of them.
UniProt Q9SRZ6: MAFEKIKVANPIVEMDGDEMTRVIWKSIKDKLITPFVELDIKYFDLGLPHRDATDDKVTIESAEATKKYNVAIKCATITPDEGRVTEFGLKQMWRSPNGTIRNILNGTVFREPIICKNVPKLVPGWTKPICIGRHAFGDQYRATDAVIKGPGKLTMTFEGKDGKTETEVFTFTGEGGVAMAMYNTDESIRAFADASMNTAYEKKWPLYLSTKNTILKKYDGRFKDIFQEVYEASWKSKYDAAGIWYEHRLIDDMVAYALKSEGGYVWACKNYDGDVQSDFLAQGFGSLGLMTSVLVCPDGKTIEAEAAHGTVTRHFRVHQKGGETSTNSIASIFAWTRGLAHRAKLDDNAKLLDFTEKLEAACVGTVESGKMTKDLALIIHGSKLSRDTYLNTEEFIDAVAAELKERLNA

For “cytosolic NADP+-dependent isocitrate dehydrogenase (cICDH), yeast two-hybrid construct (from UniProt Q9SRZ6 1-410) (enzyme)”, the binding was “no binding”.

Source: publication PMC8193866
